The exact form of at least one protein or probe is not confirmed. Where cells or extracts were used, other partners may take part. The comparison behind a weaker result is the experiment's own reference, which may not be listed here. At least one verdict was read from the data and is not stated in words by the source.
Biological target: FLAG-BCL11A zinc fingers 4-6 (UniProt Q9H165)
Experiment: EMSA
Details: 10 mM HEPES pH 7.8, 50 mM KCl, 5 mM MgCl2, 1 mM EDTA, 50 ug/mL poly(dI-dC), 1 mM DTT, 100 ug/mL BSA, 5% glycerol, 6% native PAGE in TBE at 4 C, protein in a lysate after overexpression, protein details: FLAG, label: 32P (5' end, sense strand)

Amino acid sequences for entries named in this document (tags omitted). Residues count along the entry.
UniProt Q9H165, 742-823: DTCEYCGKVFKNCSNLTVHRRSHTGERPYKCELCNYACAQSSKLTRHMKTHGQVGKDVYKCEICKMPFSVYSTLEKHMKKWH

Sequence: AGCCTTGCCTTGAACCAATAGCCTTGACAA (double strand) [HBG1/2 promoter +1 probe]
- binding result: binds more weakly

Sequence: AGCCTTGCCTTGACCAATAGCCTTGACAA (double strand) [HBG1/2 promoter WT probe]
- binding result (anti-FLAG supershift): binds

Reference: publication PMC10722557
